Data as given in patent publication US20160369115A1, “POLARIZING PLATE COMPOSITION, POLARIZING PLATE PROTECTIVE FILM, POLARIZER, POLARIZING PLATE, LIQUID CRYSTAL DISPLAY DEVICE, AND COMPOUND USED IN THE LIQUID CRYSTAL DISPLAY DEVICE” (FUJIFILM Corporation, priority 2014, published 2016).

Key:
[1] = Bleed-out properties in polarizer (haze evaluation); conditions: haze of polarizing plate; additive in polarizer, added amount 1.0 per 100 parts by mass of polyvinyl alcohol resin
[2] = Evaluation of durability of polarizing plate, additive in polarizer (Example 2); conditions: added amount 1.0 per 100 parts by mass of polyvinyl alcohol resin, 410 nm
[3] = Evaluation of durability of polarizing plate, additive in adhesive layer (Example 3); conditions: added amount 10.0 per 100 parts by mass of the polyvinyl alcohol resin, film thickness 5 μm; for Durability of polarizer: amount of change of orthogonal transmittance (%) 60° C., 95%, 500 hours / Durability of polarizer: amount of change of orthogonal transmittance (%) 60° C., 95%, 1,000 hours / Durability of polarizer: amount of change of orthogonal transmittance (%) 80° C., Dry 500 hours / Durability of polarizer: amount of change of orthogonal transmittance (%) 80° C., Dry, 1,000 hours: 410 nm

| Compound | Bleed out [1] | Durability of polarizer: amount of change of degree of polarization (%) 60° C., 95%, 500 hours [2] | Durability of polarizer: amount of change of degree of polarization (%) 60° C., 95%, 1,000 hours [2] | Durability of polarizer: amount of change of degree of polarization (%) 80° C., Dry, 500 hours [2] | Durability of polarizer: amount of change of degree of polarization (%) 80° C., Dry, 1,000 hours [2] | Durability of polarizer: amount of change of orthogonal transmittance (%) 60° C., 95%, 500 hours [2] | Durability of polarizer: amount of change of orthogonal transmittance (%) 60° C., 95%, 1,000 hours [2] | Durability of polarizer: amount of change of orthogonal transmittance (%) 80° C., Dry 500 hours [2] | Durability of polarizer: amount of change of orthogonal transmittance (%) 80° C., Dry, 1,000 hours [2] | Durability of polarizer: amount of change of degree of polarization (%) 60° C., 95%, 500 hours [3] | Durability of polarizer: amount of change of degree of polarization (%) 60° C., 95%, 1,000 hours [3] | Durability of polarizer: amount of change of degree of polarization (%) 80° C., Dry, 500 hours [3] | Durability of polarizer: amount of change of degree of polarization (%) 80° C., Dry, 1,000 hours [3] | Durability of polarizer: amount of change of orthogonal transmittance (%) 60° C., 95%, 500 hours [3] | Durability of polarizer: amount of change of orthogonal transmittance (%) 60° C., 95%, 1,000 hours [3] | Durability of polarizer: amount of change of orthogonal transmittance (%) 80° C., Dry 500 hours [3] | Durability of polarizer: amount of change of orthogonal transmittance (%) 80° C., Dry, 1,000 hours [3] |
| --- | --- | --- | --- | --- | --- | --- | --- | --- | --- | --- | --- | --- | --- | --- | --- | --- | --- |
| COC(=O)Oc1[nH]c(=O)n(Cc2ccc(S(=O)(=O)[O-])cc2)c(=O)c1C=O.[Na+] [Example compound AAV] | A (The haze was less than 0.3%.) | A+ (The amount of change of the degree of polarization before and after the elapse of time was less than 0.05%.) | A+ (The amount of change of the degree of polarization before and after the elapse of time was less than 1.0%.) | A+ (The amount of change of the degree of polarization before and after the elapse of time was less than 0.05%.) | A+ (The amount of change of the degree of polarization before and after the elapse of time was less than 0.1%.) | A+ (The amount of change of the orthogonal transmittance before and after the elapse of time was less than 0.1%.) | A+ (The amount of change of the orthogonal transmittance before and after the elapse of time was less than 0.5%.) | A+ (The amount of change of the orthogonal transmittance before and after the elapse of time was less than 0.05%.) | A+ (The amount of change of the orthogonal transmittance before and after the elapse of time was less than 0.1%.) | A+ (The amount of change of the degree of polarization before and after the elapse of time was less than 0.05%.) | A+ (The amount of change of the degree of polarization before and after the elapse of time was less than 1.0%.) | A+ (The amount of change of the degree of polarization before and after the elapse of time was less than 0.05%.) | A+ (The amount of change of the degree of polarization before and after the elapse of time was less than 0.1%.) | A+ (The amount of change of the orthogonal transmittance before and after the elapse of time was less than 0.1%.) | A+ (The amount of change of the orthogonal transmittance before and after the elapse of time was less than 0.5%.) | A+ (The amount of change of the orthogonal transmittance before and after the elapse of time was less than 0.05%.) | A+ (The amount of change of the orthogonal transmittance before and after the elapse of time was less than 0.1%.) |
| [Cl-].[Cl-].[Zn+2] [ZnCl2, reference compound] | A (The haze was less than 0.3%.) | B (The amount of change of the orthogonal transmittance before and after the elapse of time was equal to or greater than 2.0% and less than 3.0%.) | B (The amount of change of the degree of polarization before and after the elapse of time was equal to or greater than 4.0% and less than 6.0%.) | A (The amount of change of the degree of polarization before and after the elapse of time was equal to or greater than 0.05% and less than 1.0%.) | A (The amount of change of the degree of polarization before and after the elapse of time was equal to or greater than 0.1% and less than 2.0%.) | B (The amount of change of the orthogonal transmittance before and after the elapse of time was equal to or greater than 0.4% and less than 0.8%.) | B (The amount of change of the orthogonal transmittance before and after the elapse of time was equal to or greater than 1.0% and less than 1.6%.) | A (The amount of change of the orthogonal transmittance before and after the elapse of time was equal to or greater than 0.05% and less than 0.1%.) | A (The amount of change of the orthogonal transmittance before and after the elapse of time was equal to or greater than 0.1% and less than 0.3%.) | B (The amount of change of the degree of polarization before and after the elapse of time was equal to or greater than 2.0% and less than 3.0%.) | B (The amount of change of the degree of polarization before and after the elapse of time was equal to or greater than 4.0% and less than 6.0%.) | A (The amount of change of the degree of polarization before and alter the elapse of time was equal to or greater than 0.05% and less than 1.0%.) | A (The amount of change of the degree of polarization before and after the elapse of time was equal to or greater than 0.1% and less than 2.0%.) | B (The amount of change of the orthogonal transmittance before and after the elapse of time was equal to or greater than 0.4% and less than 0.8%.) | B (The amount of change of the orthogonal transmittance before and after the elapse of time was equal to or greater than 1.0% and less than 1.6%.) | A (The amount of change of the orthogonal transmittance before and after the elapse of time was equal to or greater than 0.05% and less than 0.1%.) | A (The amount of change of the orthogonal transmittance before and after the elapse of time was equal to or greater than 0.1% and less than 0.3%.) |
| CCO[Si](CCCNC(=O)OCCn1c(=O)[nH]c(OC(=O)OC)c(Cc2ccc(S(=O)(=O)[O-])cc2S(=O)(=O)[O-])c1=O)(OCC)OCC.[Na+].[Na+] [Example compound AAP] | A (The haze was less than 0.3%.) | A+ (The amount of change of the degree of polarization before and after the elapse of time was less than 0.05%.) | A+ (The amount of change of the degree of polarization before and after the elapse of time was less than 1.0%.) | A+ (The amount of change of the degree of polarization before and after the elapse of time was less than 0.05%.) | A+ (The amount of change of the degree of polarization before and after the elapse of time was less than 0.1%.) | A+ (The amount of change of the orthogonal transmittance before and after the elapse of time was less than 0.1%.) | A+ (The amount of change of the orthogonal transmittance before and after the elapse of time was less than 0.5%.) | A+ (The amount of change of the orthogonal transmittance before and after the elapse of time was less than 0.05%.) | A+ (The amount of change of the orthogonal transmittance before and after the elapse of time was less than 0.1%.) | A+ (The amount of change of the degree of polarization before and after the elapse of time was less than 0.05%.) | A+ (The amount of change of the degree of polarization before and after the elapse of time was less than 1.0%.) | A+ (The amount of change of the degree of polarization before and after the elapse of time was less than 0.05%.) | A+ (The amount of change of the degree of polarization before and after the elapse of time was less than 0.1%.) | A+ (The amount of change of the orthogonal transmittance before and after the elapse of time was less than 0.1%.) | A+ (The amount of change of the orthogonal transmittance before and after the elapse of time was less than 0.5%.) | A+ (The amount of change of the orthogonal transmittance before and after the elapse of time was less than 0.05%.) | A+ (The amount of change of the orthogonal transmittance before and after the elapse of time was less than 0.1%.) |
